The record followed here is paper PMC5501724, “Structural Basis for Specific Interaction of TGFβ Signaling Regulators SARA/Endofin with HD-PTP” (Structure(London, England:1993), 2017).

Protein sequences, listed by entry. Tags and fused reporters are not part of them. Lines headed by an entry give the natural chain unless they say otherwise; changes in a name come on top.
UniProt Q9H444: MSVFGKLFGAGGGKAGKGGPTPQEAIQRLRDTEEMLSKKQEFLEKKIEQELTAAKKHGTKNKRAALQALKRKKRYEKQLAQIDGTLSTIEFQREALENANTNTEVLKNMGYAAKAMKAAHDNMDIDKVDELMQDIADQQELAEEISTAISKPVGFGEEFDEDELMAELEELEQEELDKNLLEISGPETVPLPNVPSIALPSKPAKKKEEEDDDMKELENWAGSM

The target in this assay is T1, His6-HD-PTP_(Bro1-CC) (1-714), bacterially expressed (human) (UniProt Q9H3S7).
T1 sequence: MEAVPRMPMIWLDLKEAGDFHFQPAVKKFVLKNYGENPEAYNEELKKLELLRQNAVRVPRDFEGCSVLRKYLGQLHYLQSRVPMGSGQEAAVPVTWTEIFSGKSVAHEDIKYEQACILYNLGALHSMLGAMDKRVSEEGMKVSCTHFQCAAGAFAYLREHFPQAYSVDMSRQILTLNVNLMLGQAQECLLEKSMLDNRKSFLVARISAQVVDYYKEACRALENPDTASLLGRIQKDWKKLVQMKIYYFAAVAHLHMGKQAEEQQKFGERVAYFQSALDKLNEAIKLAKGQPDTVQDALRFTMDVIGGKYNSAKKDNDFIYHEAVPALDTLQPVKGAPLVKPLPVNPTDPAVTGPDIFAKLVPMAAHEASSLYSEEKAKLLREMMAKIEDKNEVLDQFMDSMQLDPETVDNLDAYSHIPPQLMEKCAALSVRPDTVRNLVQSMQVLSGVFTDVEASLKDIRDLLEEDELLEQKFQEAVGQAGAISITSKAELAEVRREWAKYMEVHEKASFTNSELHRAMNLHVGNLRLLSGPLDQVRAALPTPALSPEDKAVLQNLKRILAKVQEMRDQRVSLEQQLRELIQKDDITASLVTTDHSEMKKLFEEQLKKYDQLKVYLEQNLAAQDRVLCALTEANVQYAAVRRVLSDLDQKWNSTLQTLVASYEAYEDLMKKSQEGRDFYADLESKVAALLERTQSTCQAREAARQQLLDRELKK
Kind of assay: co-IP; bacterially expressed GST-CHMP4B, full length or truncated (50 μg/ml), and His6-HD-PTP Bro1-CC (5 μg) in 200 μl IP2 buffer with 250 mM NaCl, 2 h at 4°C; immunoprecipitation with anti-His; both purified.

Results are given in words; binding and its absence hold for the method and conditions named. Binding seen in cells or lysates may run through a third protein. Where a sequence is shown, tags or fusion partners need not be part of it.

“GST-CHMP4BΔCT, bacterially expressed (from UniProt Q9H444) (domain or fragment)”: the binding result was “no binding”.
